No constants are given. Whether binding was seen depends on the method and setting. In cells and extracts the contact can be indirect. A yes stands for co-enrichment or nearness to the bait. Other partners may have been found.
Molecular target: Carbon-flow-regulator A (CfrA) (Synechocystis sp. PCC 6803)
Assay: affinity purification with mass spectrometry; anti-CfrA serum cross-linked (BS3) to Protein A Dynabeads; crude extracts of Pars-cfrA, ΔglgC/Pars-cfrA and ΔglnB/Pars-cfrA cells after 24 h arsenite, nitrogen-replete; MES buffer (25 mM Mes pH 6.5, 5 mM CaCl2, 10 mM MgCl2, 20% glycerol); overnight at 4°C; preimmune serum as control; precipitate analysed by LC-MS/MS

binding: binds
B1: 2,3-Phosphoglycerate-independent PGAM (enzyme, UniProt P74507 1-532)
chain: MAEAPIAPVVLVILDGWGYRPDTRANAIAQANTPIMDSLIAAYPNTLVNTSGKDVGLPKGQMGNSEVGHLNLGAGRVVPQELVRISDAIEDGTFFDNQALIEVCQRVRDRRGKLHLIGLCSDGGVHSHIDHLLGLIDLAKLQGISQLCIHAITDGRDTPTNEGAHFVQQIQAHLEKIGLGRIVSVSGRYYALDRDRRWDRVEKAYRVMTEDGVGDGRSAAQVIKDYYASDITDEFIPPTRIGAGAIASGDGVIFYNFRPDRARQLCYALVNPSFDGFPRERIQPLDFVTFTQYDPALPVVVAFEPQNLNNILGEIISRQGMKQFRTAETEKYPHVTYFFNGGLEQPFAGEDRELIQSPMVSTYDKAPQMSAKAVTDAVCRAMEKGIYSLVVVNYANPDMVGHTGKLKEAIQAIETVDLNLGRLLASAAKVGGTVLITADHGNAEYMSDESGNPWTAHTTNPVPFILVEGEGRKIPGHGGEVKLREGGKLADIAPTILDILQLPVPAEMTGKTLIDQPLVEIKANRTPVNLSR

Source: publication PMC11142378
